Source: US20240158455A1, “MULTIPLE SCLEROSIS ASSOCIATED AUTOANTIGENS, AND USE THEREOF IN THERAPY AND DIAGNOSIS” (NEOGAP Therapeutics AB, priority 2017, published 2024)

B1: PROK2: recombinant full-length PROK2 (SEQ ID NO: 2) produced in E. coli (protein, listed as Homo sapiens)
chain: MRSLCCAPLLLLLLLPPLLLTPRAGDAAVITGACDKDSQCGGGMCCAVSIWVKSIRICTPMGKLGDSCHPLTRKNNFGNGRQERRKRKRSKRKKEVPFFGRRMHHTCPCLPGLACLRTSFNRFICLAQK
B2: RTN3: recombinant full-length RTN3 (SEQ ID NO: 3) produced in E. coli (protein, listed as Homo sapiens)
chain: MAEPSAATQSHSISSSSFGAEPSAPGGGGSPGACPALGTKSCSSSCADSFVSSSSSQPVSLFSTSQEGLSSLCSDEPSSEIMTSSFLSSSEIHNTGLTILHGEKSHVLGSQPILAKEGKDHLDLLDMKKMEKPQGTSNNVSDSSVSLAAGVHCDRPSIPASFPEHPAFLSKKIGQVEEQIDKETKNPNGVSSREAKTALDADDRFTLLTAQKPPTEYSKVEGIYTYSLSPSKVSGDDVIEKDSPESPFEVIIDKAAFDKEFKDSYKESTDDFGSWSVHTDKESSEDISETNDKLFPLRNKEAGRYPMSALLSRQFSHTNAALEEVSRCVNDMHNFTNEILTWDLVPQVKQQTDKSSDCITKTTGLDMSEYNSEIPVVNLKTSTHQKTPVCSIDGSTPITKSTGDWAEASLQQENAITGKPVPDSLNSTKEFSIKGVQGNMQKQDDTLAELPGSPPEKCDSLGSGVATVKVVLPDDHLKDEMDWQSSALGEITEADSSGESDDTVIEDITADTSFENNKIQAEKPVSIPSAVVKTGEREIKEIPSCEREEKTSKNFEELVSDSELHQDQPDILGRSPASEAACSKVPDTNVSLEDVSEVAPEKPITTENPKLPSTVSPNVFNETEFSLNVTTSAYLESLHGKNVKHIDDSSPEDLIAAFTETRDKGIVDSERNAFKAISEKMTDFKTTPPVEVLHENESGGSEIKDIGSKYSEQSKETNGSEPLGVFPTQGTPVASLDLEQEQLTIKALKELGERQVEKSTSAQRDAELPSEEVLKQTFTFAPESWPQRSYDILERNVKNGSDLGISQKPITIRETTRVDAVSSLSKTELVKKHVLARLLTDFSVHDLIFWRDVKKTGFVFGTTLIMLLSLAAFSVISVVSYLILALLSVTISFRIYKSVIQAVQKSEEGHPFKAYLDVDITLSSEAFHNYMNAAMVHINRALKLIIRLFLVEDLVDSLKLAVFMWLMTYVGAVFNGITLLILAELLIFSVPIVYEKYKTQIDHYVGIARDQTKSIVEKIQAKLPGIAKKKAE
B3: FABP7 isoform 2. Full length: recombinant full-length human FABP7 isoform 2 (SEQ ID NO: 1) produced in E. coli; in b59 "FABP7" refers to PrEST data (protein, listed as Homo sapiens)
chain: MVEAFCATWKLTNSQNFDEYMKALGVGFATRQVGNVTKPTVIISQEGDKVVIRTLSTFKNTEISFQLGEEFDETTADDRNCKSVVSLDGDKLVHIQKWDGKETNFVREIKDGKMVMVSNDNSPFFLVFFSSPHTSHLLPSSSLLLPFFLLPSFFNNTSLARFFNYM
B4: SNAP91: recombinant full-length SNAP91 (SEQ ID NO: 4) produced in E. coli (protein, listed as Homo sapiens)
chain: MSGQTLTDRIAAAQYSVTGSAVARAVCKATTHEVMGPKKKHLDYLIQATNETNVNIPQMADTLFERATNSSWVVVFKALVTTHHLMVHGNERFIQYLASRNTLFNLSNFLDKSGSHGYDMSTFIRRYSRYLNEKAFSYRQMAFDFARVKKGADGVMRTMAPEKLLKSMPILQGQIDALLEFDVHPNELTNGVINAAFMLLFKDLIKLFACYNDGVINLLEKFFEMKKGQCKDALEIYKRFLTRMTRVSEFLKVAEQVGIDKGDIPDLTQAPSSLMETLEQHLNTLEGKKPGNNEGSGAPSPLSKSSPATTVTSPNSTPAKTIDTSPPVDLFATASAAVPVSTSKPSSDLLDLQPDFSSGGAAAAAAPAPPPPAGGATAWGDLLGEDSLAALSSVPSEAQISDPFAPEPTPPTTTAEIATASASASTTTTVTAVTAEVDLFGDAFAASPGEAPAASEGAAAPATPTPVAAALDACSGNDPFAPSEGSAEAAPELDLFAMKPPETSVPVVTPTASTAPPVPATAPSPAPAVAAAAAATTAATAAATTTTTTSAATATTAPPALDIFGDLFESTPEVAAAPKPDAAPSIDLFSTDAFSSPPQGASPVPESSLTADLLSVDAFAAPSPATTASPAKVDSSGVIDLFGDAFGSSASEPQPASQAASSSSASADLLAGFGGSFMAPSPSPVTPAQNNLLQPNFEAAFGTTPSTSSSSSFDPSVFDGLGDLLMPTMAPAGQPAPVSMVPPSPAMAASKALGSDLDSSLASLVGNLGISGTTTKKGDLQWNAGEKKLTGGANWQPKVAPATWSAGVPPSAPLQGAVPPTSSVPPVAGAPSVGQPGAGFGMPPAGTGMPMMPQQPVMFAQPMMRPPFGAAAVPGTQLSPSPTPASQSPKKPPAKDPLADLNIKDFL

Each molecule was assayed on T-cells in PBMCs from MS patients and healthy controls (assay: FluoroSpot with full-length recombinant antigens (52 patients, 24 controls), with ROC analysis). Details: full-length antigen used individually.
Type: cell-based, human
Protocol: FIGS. 8A-8D. IFNγ/IL-22/IL-17 Fluorospot assay comparing T-cell activation in multiple sclerosis (MS)-patients and healthy controls when stimulated with full-length recombinant antigens (FABP7, PROK2, RTN3, SNAP91). Fifty-two Multiple Sclerosis patients and 24 healthy controls were tested for T-cell activation towards recombinant full-length versions of the autoantigens in a FluoroSpot assay. FIG. 8A: FABP7 isoform 2 (SEQ ID NO:1). FIG. 8B: PROK2 (SEQ ID NO:2). FIG. 8C: RTN3 SEQ ID NO:3. FIG. 8D: SNAP91 SEQ ID NO: 4. P-values calculated using Mann-Whitney test. Staples denote mean and C195%.
FIGS. 9A-9E. ROC-curves for the full-length antigens, Sensitivity and specificity when used as a diagnostic marker. Individually, the four antigens perform similarly as diagnostic markers for disease, all reaching a sensitivity of ˜50% with a specificity of 95%. FIG. 9A: FABP7 isoform 2. FIG. 9B: PROK2. FIG. 9C: RTN3. FIG. 9D: SNAP91. FIG. 9E: Using a combination of all four antigens as a diagnostic test achieves higher sensitivity and specificity. Specifically, utilizing the ratio of IL-17 divided by the square root of IFNγ response towards the mean response to the four antigens achieves a sensitivity of 70% with a specificity of >95%.
The full-length proteins can also be used in a similar way, see FIG. 9A-D. Utilizing all four full-length antigens, using each individual's average response to the four, increases the sensitivity and specificity further (FIG. 9E). Combining different readouts, such as analyzing the ratio between IL-17 and IFNγ, can increase the sensitivity of the test further (FIG. 9E, Table 2).
Recombinant full-length versions of the antigens FABP7 (SEQ ID NO: 1), PROK2 (SEQ ID NO: 2), RTN3 (SEQ ID NO: 3), SNAP91 (SEQ ID NO: 4) were produced in E. coli in house according to standard recombinant protein production protocols and purified via his-tag purification. 52 patients and 24 controls were tested for reactivity towards the antigens in an IFNγ/IL17/IL22 FluoroSpot assay as previously described.
A second, larger, cohort was collected in order to test the full length antigens. In this cohort, 52 patients and 24 healthy controls were included. The inclusion/exclusion criteria (table 5) as well as the sampling and PBMCs isolation were the same.
The antigens (FABP7, PROK2, RTN3 and SNAP91) picked out from the screening of PrESTs described in Example 1 and 2 were selected for further testing on the full-length versions of the protein. The full-length antigens were produced by transforming plasmids encoding the antigen and a […] into Escherichia coli. After growth, the bacteria were lysed and the protein purified from the supernatant of the bacterial lysis via 6× histidine-tag purification on an immobilized metal affinity chromatography-column. The antigens were subsequently coupled to beads and endotoxin-washed as previously described.
The FluoroSpot assay was performed under sterile conditions in a cell culture hood. The cells were thawed in a water bath at 37° C. and washed with cRPMI (RPMI 1640 medium, Sigma Aldrich, containing 10% fetal calf serum, 1% 200 mM L-Glutamine, 1% 10,000 U/ml Penicillin-10 mg/ml Streptomycin). The cells were counted manually using a light-microscope (Nikon TMS-F, Nikon, Japan) and subsequently diluted in cRPMI to a concentration of 2.5×10^6 cells/ml. The FluoroSpot plate (Human IFNγ/IL-22/IL-17A FluoroSpot kit, pre-coated, Mabtech, Sweden) was washed with PBS and then blocked with cRPMI for 30 min at room temperature. The blocking cRPMI was then discarded and 100 μl fresh cRPMI was added to each well of the FluoroSpot plate. Antigen (3×10^6 beads) was added to each well in duplicates according to a specific layout. In accordance to the manufacturer's protocol, anti-CD3 was used as a positive control. Both uncoupled beads and media without stimuli was used as negative controls. PBMCs (250,000 cells) in 100 μl cRPMI were added to each well (125,000 cells for the anti-CD3). […]

Row | Molecule | sensitivity as diagnostic marker | specificity as diagnostic marker
1 | B1 | ~50% | 95%
2 | B2 | ~50% | 95%
3 | B3 | ~50% | 95%
4 | B4 | ~50% | 95%
